Measurements taken from PMC10291030.

Target: T1, PsaK (Chroomonas placoidea)
T1 sequence: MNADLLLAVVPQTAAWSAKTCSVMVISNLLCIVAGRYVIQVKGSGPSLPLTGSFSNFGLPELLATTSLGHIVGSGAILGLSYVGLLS
Test: cryo-EM structure; native PSI–ACPI supercomplex isolated from C. placoidea thylakoids in 0.02% α-DDM, MES–NaOH pH 6.5; two classes: PSI–14ACPI at 2.66 Å and PSI–11ACPI (without ACPI-9/10/11) at 2.71 Å; both purified

Row | binding | Substance
1 | binds | alloxanthin-chlorophyll a/c protein ACPI-1 (Chroomonas placoidea)
2 | binds | alloxanthin-chlorophyll a/c protein ACPI-11 (Chroomonas placoidea)

Results are given in words; binding and its absence hold for the method and conditions named. Binding calls can cover weak binding; strength is not graded here.
